These results are taken from publication PMC12298810.

These are yes or no findings as the source states them, for the method shown. For some of these results: A result given as binding can be weak or reduced; the word gives no strength. For some of these results: Where a sequence is shown, tags or fusion partners need not be part of it. For some of these results: Binding seen in cells or lysates may run through a third protein.

Test [1] concerns the target T1, OsCATC-MYC (rice (Oryza sativa)) (UniProt Q10S82).
T1 sequence: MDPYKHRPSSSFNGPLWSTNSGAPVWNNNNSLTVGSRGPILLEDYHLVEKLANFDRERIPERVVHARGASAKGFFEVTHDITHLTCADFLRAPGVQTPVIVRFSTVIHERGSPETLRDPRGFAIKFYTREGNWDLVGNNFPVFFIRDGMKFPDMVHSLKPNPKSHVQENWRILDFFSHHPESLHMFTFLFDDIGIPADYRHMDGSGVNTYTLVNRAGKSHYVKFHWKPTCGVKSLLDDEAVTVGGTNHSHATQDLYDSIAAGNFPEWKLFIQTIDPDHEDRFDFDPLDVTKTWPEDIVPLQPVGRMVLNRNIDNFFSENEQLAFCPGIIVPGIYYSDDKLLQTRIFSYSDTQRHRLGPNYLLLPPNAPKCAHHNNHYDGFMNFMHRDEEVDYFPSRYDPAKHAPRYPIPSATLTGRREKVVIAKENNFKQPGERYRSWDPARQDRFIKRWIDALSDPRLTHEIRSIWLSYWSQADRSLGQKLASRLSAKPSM
Kind of test: co-IP; OsAP4-HA co-expressed with OsCATA-MYC or OsCATC-MYC in N. benthamiana leaves; total proteins on MYC-tagged magnetic beads, 4 °C overnight, PBS washes; immunoblot with anti-MYC and anti-HA.

Test [2] has as its target BD-OsAP4 (rice (Oryza sativa)). Briefly: two-hybrid; BD-OsAP4 (pGBKT7, bait) with AD fusions (pGADT7, prey) in S. cerevisiae AH109; growth on SD/-Ade/-His/-Leu/-Trp/X-alpha-Gal.
For test [3], the target named is OsAP4-His (rice (Oryza sativa)). Kind of test: pull-down; purified OsAP4-His on His-tagged magnetic beads with OsCATA-GST or OsCATC-GST, 4 °C overnight, washed three times with PBS; immunoblot with anti-GST and anti-His; both purified. On the technique in general: Immunoblotting shows a protein as a band on a membrane.
The target of test [4] is OsAP4-YFPN (rice (Oryza sativa)). Briefly: split reporter; BiFC: OsAP4-YFPN with OsCATA-YFPC or OsCATC-YFPC in N. benthamiana leaves, 48 h, confocal microscopy.

As to OsAP4-HA (rice (Oryza sativa)) (enzyme), in test [1], the binding entry is recorded as “binds”.

B1: AD-OsCATC (enzyme, UniProt Q10S82 1-492)
chain: T1 sequence
As to B1, in test [2], the binding entry was “binds”.

B2: OsCATC-GST (enzyme, UniProt Q10S82 1-492)
chain: T1 sequence
As for B2, in test [3], the binding result is given as “no binding”.

B3: OsCATC-YFPC (enzyme, UniProt Q10S82 1-492)
chain: T1 sequence
As for B3, the binding entry in test [4] is “binds”.
